In patent US20240277806A1:
No constants are given. Whether binding was seen depends on the method and setting. Some binding calls cover weakened binding; strength is not graded here.

Protein sequences, listed by entry. Tags and fused reporters are not part of them. Lines headed by an entry give the natural chain unless they say otherwise; changes in a name come on top. Residues count along the entry.
UniProt P22004, residues 382-513: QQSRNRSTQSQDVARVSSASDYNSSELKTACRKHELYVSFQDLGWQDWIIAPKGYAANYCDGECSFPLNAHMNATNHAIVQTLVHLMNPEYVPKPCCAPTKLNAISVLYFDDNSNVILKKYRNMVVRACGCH
UniProt P27037: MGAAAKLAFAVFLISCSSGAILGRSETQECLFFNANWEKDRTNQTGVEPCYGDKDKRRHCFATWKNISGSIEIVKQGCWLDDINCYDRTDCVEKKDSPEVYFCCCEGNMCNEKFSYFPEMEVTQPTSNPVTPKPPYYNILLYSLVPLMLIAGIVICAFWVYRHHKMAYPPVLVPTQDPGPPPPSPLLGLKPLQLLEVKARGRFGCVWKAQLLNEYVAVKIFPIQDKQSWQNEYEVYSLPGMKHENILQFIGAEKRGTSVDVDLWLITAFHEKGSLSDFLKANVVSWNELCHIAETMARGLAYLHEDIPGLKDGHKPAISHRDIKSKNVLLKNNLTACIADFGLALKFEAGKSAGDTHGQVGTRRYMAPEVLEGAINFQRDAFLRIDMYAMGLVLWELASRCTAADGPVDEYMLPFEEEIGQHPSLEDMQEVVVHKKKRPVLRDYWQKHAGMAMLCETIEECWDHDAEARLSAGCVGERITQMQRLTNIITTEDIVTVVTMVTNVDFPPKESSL

Columns and labels:
BMP6 = BMP6 (UniProt P22004); test: similar binding assay (SPR, Biacore)
BMP10 = molecular target: T1, BMP10 (UniProt O95393); test: similar binding assay (SPR, Biacore)
T1 sequence (looked up): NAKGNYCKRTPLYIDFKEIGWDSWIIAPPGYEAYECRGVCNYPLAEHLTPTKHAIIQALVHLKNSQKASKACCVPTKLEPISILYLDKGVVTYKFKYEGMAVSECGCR

activin B = molecular target: T2, activin B (UniProt P09529); test: similar binding assay (SPR, Biacore)
T2 sequence (looked up): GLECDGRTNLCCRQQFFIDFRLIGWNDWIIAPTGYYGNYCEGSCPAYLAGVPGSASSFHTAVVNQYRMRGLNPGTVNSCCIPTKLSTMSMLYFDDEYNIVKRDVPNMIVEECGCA

GDF8 = molecular target: T3, GDF8 (UniProt O14793); test: similar binding assay (SPR, Biacore)
T3 sequence (looked up): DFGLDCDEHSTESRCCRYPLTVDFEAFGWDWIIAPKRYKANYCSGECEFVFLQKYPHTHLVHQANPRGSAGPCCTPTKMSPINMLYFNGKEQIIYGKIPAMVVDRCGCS

GDF11 = molecular target: T4, GDF11 (UniProt O95390); test: SPR (Biacore), GDF11 amine-coupled to CM5 chip, ActRIIA-mFc as analyte
T4 sequence (looked up): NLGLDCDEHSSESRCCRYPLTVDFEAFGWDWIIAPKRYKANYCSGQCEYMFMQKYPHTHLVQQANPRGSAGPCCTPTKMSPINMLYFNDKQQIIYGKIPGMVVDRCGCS

Measured: binding

ActRIIA-mFc (from UniProt P27037 21-135) (Fc fusion)
binds: all assays above
